Measurements as given in article PMC7819943, “Rice protein-binding microarrays: a tool to detect cis-acting elements near promoter regions in rice”.
Some of the results follow.

Protein sequences, listed by entry. Tags and fused reporters are not part of them.
UniProt Q0JBA9, entry or part of it: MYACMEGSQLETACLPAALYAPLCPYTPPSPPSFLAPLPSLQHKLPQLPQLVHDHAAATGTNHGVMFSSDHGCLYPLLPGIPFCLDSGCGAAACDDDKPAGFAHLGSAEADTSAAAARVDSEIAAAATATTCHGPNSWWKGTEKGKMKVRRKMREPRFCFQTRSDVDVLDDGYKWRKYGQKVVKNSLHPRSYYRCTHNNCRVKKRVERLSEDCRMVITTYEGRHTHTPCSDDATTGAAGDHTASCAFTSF

Each sequence was assayed against OsWRKY34 (Oryza sativa, UniProt Q0JBA9 1-250) (assay: protein-binding microarray (RPBM); PBS, 2% BSA, 51.3 ng/ul salmon testes DNA, 50 uM zinc acetate, 200 nM TF, 25 C, 1 h; high values mean tight binding). Conditions: protein: recombinant; tags: N-terminal polyhistidine and DsRed monomer fusion (pET32a); label: CyDye5-dUTP incorporated in the synthesized complementary strand; 3' TTTTT single-stranded linker to array surface; dsDNA, one strand shown.
How it was run: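 Polyhistidine-tagged DsRed fusions of transcription factors, joined at the N-terminus, were expressed in E. coli BL21-CodonPlus and isolated on Ni–NTA. They were incubated at 200 nM for 1 h at 25 °C on a custom Agilent array, double-stranded and BSA-blocked, in PBS with 2% BSA, salmon testes DNA and 50 µM zinc acetate. The binding signal is per-feature fluorescence intensity (arbitrary units) read on an Axon 4000B scanner after washing.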
“GCCGTGATCGCGTTGCCGATCGCGAGCGGCAATCTTTGACCGGAGTCACCTAGTGCAG” was tested, and the binding signal was 8260 fluorescence intensity (a.u.). “TTATGGTTTTCACATGTTAGGGTTCTAGTGAGCTTTATCTCGGAGTCACCTAGTGCAG” was tested, and the binding signal was 9280 fluorescence intensity (a.u.). For “GCGCAACTATAATAGTACTATCTCATATGTTGTTTTTTTTCGGAGTCACCTAGTGCAG”, the binding signal was 9230 fluorescence intensity (a.u.). “GTCCACGTCCCTCGCCGCCGCCACGCTCTCTCGTCTGCCTCGGAGTCACCTAGTGCAG” was tested, and the binding signal was 12200 fluorescence intensity (a.u.). In the case of “CTCACTGAATGTTATACTGCATTACTGGTCTTGTTAAATACGGAGTCACCTAGTGCAG”, the binding signal is reported as 8410 fluorescence intensity (a.u.). For “GCTTAGCCACACACAGCCTGTCGACCTTTTCAGCATTACTCGGAGTCACCTAGTGCAG”, the binding signal was 8570 fluorescence intensity (a.u.). “TGATCATTGCCGGTCGGCGCCCGTGGTTTTTTTCCGCAAGCGGAGTCACCTAGTGCAG” was tested, and the binding signal was 8680 fluorescence intensity (a.u.). In the case of “AAATCACTCGGGGCTGTGGATTATGTGAGGGGAGAATGATCGGAGTCACCTAGTGCAG”, the binding signal is reported as 9540 fluorescence intensity (a.u.). With “AAGTTATAAGATGTTTTGACTTTGGTCAAAGTCAAACTGCCGGAGTCACCTAGTGCAG” the binding signal was 14600 fluorescence intensity (a.u.). “CTCCCAGCCATTTGTCACCAACCGCAGCGCATCATATCATCGGAGTCACCTAGTGCAG” was tested, and the binding signal was 8480 fluorescence intensity (a.u.). In the case of “CATATTTTAATTTTAATGTATGACACCGTTGACTTTTCGACGGAGTCACCTAGTGCAG”, the binding signal is reported as 16000 fluorescence intensity (a.u.). “AGCTCCAATACATCACGCTGCGTTTGCTCCATATCCCATTCGGAGTCACCTAGTGCAG” was tested, and the binding signal was 8950 fluorescence intensity (a.u.). “TATTTTTGTTCTTTCGCAAATACAGTGCATTTTCCTGTTGCGGAGTCACCTAGTGCAG” was tested, and the binding signal was 9470 fluorescence intensity (a.u.). “ACCACCGTAAATTTGGTTTTTGATAGAATATATTCTTACACGGAGTCACCTAGTGCAG” was tested, and the binding signal was 8340 fluorescence intensity (a.u.). “CTTTGCAACATTTTACGTCTGATCTGTAGTCGCCACCGTACGGAGTCACCTAGTGCAG” was tested, and the binding signal was 10600 fluorescence intensity (a.u.). In the case of “AGCCAGCCCAAAAGCCACGCCGTCCACTCCATCTCCGCCTCGGAGTCACCTAGTGCAG”, the binding signal is reported as 8440 fluorescence intensity (a.u.). For “ACTAATTTGATATGAAAGTTGGACTTCTCATTGCAGCTCACGGAGTCACCTAGTGCAG”, the binding signal was 9040 fluorescence intensity (a.u.). For “GCGGAGCGTTGGGTTGGGGATCAGGTCGTCGACGCACGCCCGGAGTCACCTAGTGCAG”, the binding signal was 10200 fluorescence intensity (a.u.). In the case of “ACAGCGCCATTTACTTGCCATCCAATGGATCAACTCATTCCGGAGTCACCTAGTGCAG”, the binding signal is reported as 9080 fluorescence intensity (a.u.). “TCTTCAATAGTACACTAACTACAATTGCATCACTACCAGTCGGAGTCACCTAGTGCAG” was tested, and the binding signal was 8620 fluorescence intensity (a.u.). In the case of “TCCAAACTATAGTTCCGTGCTTCCGTTTCCTAGTGGTTTTCGGAGTCACCTAGTGCAG”, the binding signal is reported as 8190 fluorescence intensity (a.u.). For “CTGGGTCTGTTCTGTCTGCTTTCACAGGGAGATTTGTTGACGGAGTCACCTAGTGCAG”, the binding signal was 10100 fluorescence intensity (a.u.). With “GTGATATGGCACTCAAATCGTACATTTTTCCTATCATTGTCGGAGTCACCTAGTGCAG” the binding signal was 8550 fluorescence intensity (a.u.). For “ATTATCCAAAGTAATTTAAGCATAACTTTTTGTTTTTTATCGGAGTCACCTAGTGCAG”, the binding signal was 8120 fluorescence intensity (a.u.). “GCGGCGAAGACGAGGGCGGGGAGGCAGCGGCGAAGAGGTCCGGAGTCACCTAGTGCAG” was tested, and the binding signal was 9170 fluorescence intensity (a.u.). In the case of “AGGGTTGAGATTTAGGGTGTGTTTGGTTCACGGTCATGTACGGAGTCACCTAGTGCAG”, the binding signal is reported as 8460 fluorescence intensity (a.u.). In the case of “ATCATTTTCCTATCCCATTAGTCAAACACTGCCTAGCTACCGGAGTCACCTAGTGCAG”, the binding signal is reported as 9960 fluorescence intensity (a.u.). For “ATCAATCTGGACCGTATATTTTTGATCGGACGGTTCAAACCGGAGTCACCTAGTGCAG”, the binding signal was 8670 fluorescence intensity (a.u.). “AATCCTATATTTTTTCTATTCCTCCGTTTTTTTCAATCTTCGGAGTCACCTAGTGCAG” was tested, and the binding signal was 8700 fluorescence intensity (a.u.). For “CCACATTTTGCGCAAAAATGCTCATATGCGTCATGCTGACCGGAGTCACCTAGTGCAG”, the binding signal was 8150 fluorescence intensity (a.u.). In the case of “CTTTCCTCCTCCGCAAGGTCGGTTTCCTTTTGTCCTTTCACGGAGTCACCTAGTGCAG”, the binding signal is reported as 10600 fluorescence intensity (a.u.). With “CGGACGGCCACCCGTCCCGCAACCCCGCCCCGCGTCGCCTCGGAGTCACCTAGTGCAG” the binding signal was 8700 fluorescence intensity (a.u.). With “CATCGAGCTCATCCTATTGACTAGTCATAATGGGTTGTAACGGAGTCACCTAGTGCAG” the binding signal was 8810 fluorescence intensity (a.u.). “CAGTATTGTTCATCTAGATTTCATTTTTCTTCTTGAATTGCGGAGTCACCTAGTGCAG” was tested, and the binding signal was 9390 fluorescence intensity (a.u.). For “ATATATATATATATATATATATATATTAAATTTGTTTGGTCGGAGTCACCTAGTGCAG”, the binding signal was 10400 fluorescence intensity (a.u.). In the case of “CGCAAACGAGATCCGGATCTCCTGCCTCTATCAGTATGACCGGAGTCACCTAGTGCAG”, the binding signal is reported as 8590 fluorescence intensity (a.u.). With “AAGTTTCATCTAAAATTTTGTACTGTTGCCTTAGTCATATCGGAGTCACCTAGTGCAG” the binding signal was 13000 fluorescence intensity (a.u.). With “CCCTATGTTTTTGTGTGGCCTAGATGGAGTTTTATAAAAACGGAGTCACCTAGTGCAG” the binding signal was 10000 fluorescence intensity (a.u.). In the case of “ACTATAGGGCTGTGTTTGCATCCCCATGTTCCCAACACTTCGGAGTCACCTAGTGCAG”, the binding signal is reported as 10200 fluorescence intensity (a.u.). In the case of “CTTGTTGCTGTCTTGCATGTAAGCCGTATTTTCTCCCCATCGGAGTCACCTAGTGCAG”, the binding signal is reported as 9170 fluorescence intensity (a.u.). “GATTATTTACCTTTCACATAATATCGAGTATTTCTCAGTTCGGAGTCACCTAGTGCAG” was tested, and the binding signal was 9960 fluorescence intensity (a.u.). With “GCCACGGCCCATTAACGCATGCGACCTTAACCGCGCTGCACGGAGTCACCTAGTGCAG” the binding signal was 8650 fluorescence intensity (a.u.).
